Data source: PubChem BioAssay AID1259254 (NCATS, 2017)
Here is an unselected part of about 59,000 reagents. About 1,550 of all reagents (2.6%) count as active. 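G2 share is only a proxy for re-replication; each gene was hit by three separate siRNAs, and active genes were retested.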 Raw values vary from plate to plate and are shown uncorrected. Reagents against one gene are numbered here. Not given: the amount of reagent.

Test: 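Finding genes that stop cells copying their DNA twice in one cycle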 (primary screen)
Cells: human HCT116 colorectal cancer cells
Reagent: single siRNA against human genes
Timing: 3 days
Read-out: 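Nuclei stained with Hoechst and imaged; cell-cycle phase assigned by DNA content; G2 share scaled per plate, non-targeting siRNA 0%, GMNN siRNA 100%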
Direction: G2 robust z-score and G2 cells, % of GMNN control: higher = more G2 cells, more excess DNA replication; raw share of cells in G2: higher = larger share of cells with G2 DNA content
Call rule: 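An siRNA counts as active if its G2 robust z-score lies at least 5 MADs above the screen median; here such calls match roughly 38% of GMNN control or more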

no.	gene knocked down	siRNA no.	G2 robust z-score	G2 cells, % of GMNN control	raw share of cells in G2 (%)	call
1	RAB32 (RAB32, member RAS oncogene family)	1	1.5	13.5	11.6	inactive
2	RAB32 (RAB32, member RAS oncogene family)	2	-1.12	-4.91	2.25	inactive
3	RAB32 (RAB32, member RAS oncogene family)	3	0.148	4.01	8.06	inactive
4	BLVRB (biliverdin reductase B)	1	0.401	5.79	6.15	inactive
5	BLVRB (biliverdin reductase B)	2	-0.115	2.16	5.45	inactive
6	BLVRB (biliverdin reductase B)	3	0.844	8.9	8.24	inactive
7	EHBP1 (EH domain binding protein 1)	1	1.11	10.8	7.06	inactive
8	EHBP1 (EH domain binding protein 1)	2	-0.939	-3.64	3.04	inactive
9	EHBP1 (EH domain binding protein 1)	3	-0.441	-0.132	3.88	inactive
10	MAPK3 (mitogen-activated protein kinase 3)	1	5.01	38.2	18.2	active
11	MAPK3 (mitogen-activated protein kinase 3)	2	2.26	18.9	11.8	inactive
12	MAPK3 (mitogen-activated protein kinase 3)	3	-0.374	0.337	4.14	inactive
13	TEX264 (testis expressed 264, ER-phagy receptor)	1	0.42	5.92	5.72	inactive
14	TEX264 (testis expressed 264, ER-phagy receptor)	2	1.22	11.6	9.14	inactive
15	TEX264 (testis expressed 264, ER-phagy receptor)	3	-0.541	-0.839	2.91	inactive
16	HDLBP (high density lipoprotein binding protein)	1	-1.31	-6.25	2.77	inactive
17	HDLBP (high density lipoprotein binding protein)	2	0.933	9.53	9.31	inactive
18	HDLBP (high density lipoprotein binding protein)	3	-0.0397	2.69	5.19	inactive
19	RGMB (repulsive guidance molecule BMP co-receptor b)	1	0.446	6.1	5.87	inactive
20	RGMB (repulsive guidance molecule BMP co-receptor b)	2	2.3	19.2	10.5	inactive
21	RGMB (repulsive guidance molecule BMP co-receptor b)	3	-0.00304	2.95	4.16	inactive
22	GRIP2 (glutamate receptor interacting protein 2)	1	3.58	28.2	14.3	inactive
23	GRIP2 (glutamate receptor interacting protein 2)	2	0.13	3.88	6.6	inactive
24	GRIP2 (glutamate receptor interacting protein 2)	3	0.304	5.11	5.32	inactive
25	PPM1L (protein phosphatase, Mg2+/Mn2+ dependent 1L)	1	-0.102	2.25	5.53	inactive
26	PPM1L (protein phosphatase, Mg2+/Mn2+ dependent 1L)	2	-1.27	-5.99	2.5	inactive
27	PPM1L (protein phosphatase, Mg2+/Mn2+ dependent 1L)	3	-0.862	-3.1	2.56	inactive
28	PSMD13 (proteasome 26S subunit, non-ATPase 13)	1	3.29	26.1	14	inactive
29	PSMD13 (proteasome 26S subunit, non-ATPase 13)	2	1.99	17	9.79	inactive
30	PSMD13 (proteasome 26S subunit, non-ATPase 13)	3	0.443	6.08	7	inactive

4 of these entries, set out differently.
RAB32 (RAB32, member RAS oncogene family) #3 → G2 robust z-score = 0.148; G2 cells, % of GMNN control = 4.01; raw share of cells in G2 (%) = 8.06; call = inactive
BLVRB (biliverdin reductase B) #1 → G2 robust z-score = 0.401; G2 cells, % of GMNN control = 5.79; raw share of cells in G2 (%) = 6.15; call = inactive
BLVRB (biliverdin reductase B) #2 → G2 robust z-score = -0.115; G2 cells, % of GMNN control = 2.16; raw share of cells in G2 (%) = 5.45; call = inactive
BLVRB (biliverdin reductase B) #3 → G2 robust z-score = 0.844; G2 cells, % of GMNN control = 8.9; raw share of cells in G2 (%) = 8.24; call = inactive
